Data on 1 substance can be found in patent US6683052B1 (Institut National de la Sante et de la Recherche Medicale …, priority 1998, dated 2004).

Strings that start with PEPTIDE1 are HELM notation: dots part the residues, brackets hold end groups and non-standard residues.

This data set can be described thus: solid-phase peptide synthesis. As to conditions: whole synthesis, scale 0.25 mmol.

In turn, “PEPTIDE1{[ac].[K(Pam)].A.K.F.E.V.N.N.P.Q.V.Q.R.Q.A.F.N.E.L.I.R.V.V.H.Q.L.L.P.E.S.S.L.R.K.R.K.R.S.R.[am]}$$$$V2.0” gave an isolated mass of 140 mg. The “final HPLC purity” value (RP-HPLC on C3 Zorbax, homogeneity confirmed in two different RP-HPLC systems) is on record as “greater than 95%”. For the same substance, the isolated yield (cumulative) is 10%.
